No constants are given. Whether binding was seen depends on the method and setting. Binding seen in cells or lysates may run through a third protein. A yes stands for co-enrichment or nearness to the bait. Other partners may have been found. For part of these data: A no says only that the protein was not detected with the bait.
Experiments:
[1] = molecular target: PDZ and LIM domain 7 (mouse (endogenous in SVFs, mature adipocytes, H5V)) (UniProt Q3TJD7); test: affinity purification with mass spectrometry; IP-MS: lysates of mouse SVFs precipitated with anti-ANXA1 or anti-PDLIM7 against control IgG; gel pieces digested with trypsin, LC-MS/MS
[2] = molecular target: T1, Annexin A1 (mouse (endogenous in SVFs, mature adipocytes, H5V)) (UniProt P10107); test: as above
T1 sequence: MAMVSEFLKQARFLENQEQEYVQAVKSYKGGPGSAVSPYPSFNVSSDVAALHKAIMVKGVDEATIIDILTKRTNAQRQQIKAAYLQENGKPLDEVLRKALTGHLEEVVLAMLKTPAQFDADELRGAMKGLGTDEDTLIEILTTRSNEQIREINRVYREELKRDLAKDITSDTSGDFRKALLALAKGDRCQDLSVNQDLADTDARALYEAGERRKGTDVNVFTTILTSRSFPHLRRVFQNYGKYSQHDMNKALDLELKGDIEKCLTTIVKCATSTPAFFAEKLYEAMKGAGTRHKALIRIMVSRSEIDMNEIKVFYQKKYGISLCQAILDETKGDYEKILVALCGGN

Sequences of proteins named here, by UniProt entry; tags and fusion partners are left off. A change or cut given only in a name is not applied to a line headed by its entry.
UniProt Q3TJD7: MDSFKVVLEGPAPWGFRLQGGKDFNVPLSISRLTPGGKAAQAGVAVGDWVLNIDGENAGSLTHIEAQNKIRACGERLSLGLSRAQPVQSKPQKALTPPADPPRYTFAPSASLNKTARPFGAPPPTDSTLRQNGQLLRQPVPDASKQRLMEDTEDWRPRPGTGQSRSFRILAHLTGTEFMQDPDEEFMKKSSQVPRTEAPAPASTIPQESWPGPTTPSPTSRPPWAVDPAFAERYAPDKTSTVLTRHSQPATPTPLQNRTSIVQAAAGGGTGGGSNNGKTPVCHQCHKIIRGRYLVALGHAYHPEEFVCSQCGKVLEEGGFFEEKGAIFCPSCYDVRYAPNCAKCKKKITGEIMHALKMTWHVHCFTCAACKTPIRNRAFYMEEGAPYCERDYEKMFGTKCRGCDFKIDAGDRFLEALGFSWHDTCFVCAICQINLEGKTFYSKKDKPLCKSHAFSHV
UniProt Q7TPH6: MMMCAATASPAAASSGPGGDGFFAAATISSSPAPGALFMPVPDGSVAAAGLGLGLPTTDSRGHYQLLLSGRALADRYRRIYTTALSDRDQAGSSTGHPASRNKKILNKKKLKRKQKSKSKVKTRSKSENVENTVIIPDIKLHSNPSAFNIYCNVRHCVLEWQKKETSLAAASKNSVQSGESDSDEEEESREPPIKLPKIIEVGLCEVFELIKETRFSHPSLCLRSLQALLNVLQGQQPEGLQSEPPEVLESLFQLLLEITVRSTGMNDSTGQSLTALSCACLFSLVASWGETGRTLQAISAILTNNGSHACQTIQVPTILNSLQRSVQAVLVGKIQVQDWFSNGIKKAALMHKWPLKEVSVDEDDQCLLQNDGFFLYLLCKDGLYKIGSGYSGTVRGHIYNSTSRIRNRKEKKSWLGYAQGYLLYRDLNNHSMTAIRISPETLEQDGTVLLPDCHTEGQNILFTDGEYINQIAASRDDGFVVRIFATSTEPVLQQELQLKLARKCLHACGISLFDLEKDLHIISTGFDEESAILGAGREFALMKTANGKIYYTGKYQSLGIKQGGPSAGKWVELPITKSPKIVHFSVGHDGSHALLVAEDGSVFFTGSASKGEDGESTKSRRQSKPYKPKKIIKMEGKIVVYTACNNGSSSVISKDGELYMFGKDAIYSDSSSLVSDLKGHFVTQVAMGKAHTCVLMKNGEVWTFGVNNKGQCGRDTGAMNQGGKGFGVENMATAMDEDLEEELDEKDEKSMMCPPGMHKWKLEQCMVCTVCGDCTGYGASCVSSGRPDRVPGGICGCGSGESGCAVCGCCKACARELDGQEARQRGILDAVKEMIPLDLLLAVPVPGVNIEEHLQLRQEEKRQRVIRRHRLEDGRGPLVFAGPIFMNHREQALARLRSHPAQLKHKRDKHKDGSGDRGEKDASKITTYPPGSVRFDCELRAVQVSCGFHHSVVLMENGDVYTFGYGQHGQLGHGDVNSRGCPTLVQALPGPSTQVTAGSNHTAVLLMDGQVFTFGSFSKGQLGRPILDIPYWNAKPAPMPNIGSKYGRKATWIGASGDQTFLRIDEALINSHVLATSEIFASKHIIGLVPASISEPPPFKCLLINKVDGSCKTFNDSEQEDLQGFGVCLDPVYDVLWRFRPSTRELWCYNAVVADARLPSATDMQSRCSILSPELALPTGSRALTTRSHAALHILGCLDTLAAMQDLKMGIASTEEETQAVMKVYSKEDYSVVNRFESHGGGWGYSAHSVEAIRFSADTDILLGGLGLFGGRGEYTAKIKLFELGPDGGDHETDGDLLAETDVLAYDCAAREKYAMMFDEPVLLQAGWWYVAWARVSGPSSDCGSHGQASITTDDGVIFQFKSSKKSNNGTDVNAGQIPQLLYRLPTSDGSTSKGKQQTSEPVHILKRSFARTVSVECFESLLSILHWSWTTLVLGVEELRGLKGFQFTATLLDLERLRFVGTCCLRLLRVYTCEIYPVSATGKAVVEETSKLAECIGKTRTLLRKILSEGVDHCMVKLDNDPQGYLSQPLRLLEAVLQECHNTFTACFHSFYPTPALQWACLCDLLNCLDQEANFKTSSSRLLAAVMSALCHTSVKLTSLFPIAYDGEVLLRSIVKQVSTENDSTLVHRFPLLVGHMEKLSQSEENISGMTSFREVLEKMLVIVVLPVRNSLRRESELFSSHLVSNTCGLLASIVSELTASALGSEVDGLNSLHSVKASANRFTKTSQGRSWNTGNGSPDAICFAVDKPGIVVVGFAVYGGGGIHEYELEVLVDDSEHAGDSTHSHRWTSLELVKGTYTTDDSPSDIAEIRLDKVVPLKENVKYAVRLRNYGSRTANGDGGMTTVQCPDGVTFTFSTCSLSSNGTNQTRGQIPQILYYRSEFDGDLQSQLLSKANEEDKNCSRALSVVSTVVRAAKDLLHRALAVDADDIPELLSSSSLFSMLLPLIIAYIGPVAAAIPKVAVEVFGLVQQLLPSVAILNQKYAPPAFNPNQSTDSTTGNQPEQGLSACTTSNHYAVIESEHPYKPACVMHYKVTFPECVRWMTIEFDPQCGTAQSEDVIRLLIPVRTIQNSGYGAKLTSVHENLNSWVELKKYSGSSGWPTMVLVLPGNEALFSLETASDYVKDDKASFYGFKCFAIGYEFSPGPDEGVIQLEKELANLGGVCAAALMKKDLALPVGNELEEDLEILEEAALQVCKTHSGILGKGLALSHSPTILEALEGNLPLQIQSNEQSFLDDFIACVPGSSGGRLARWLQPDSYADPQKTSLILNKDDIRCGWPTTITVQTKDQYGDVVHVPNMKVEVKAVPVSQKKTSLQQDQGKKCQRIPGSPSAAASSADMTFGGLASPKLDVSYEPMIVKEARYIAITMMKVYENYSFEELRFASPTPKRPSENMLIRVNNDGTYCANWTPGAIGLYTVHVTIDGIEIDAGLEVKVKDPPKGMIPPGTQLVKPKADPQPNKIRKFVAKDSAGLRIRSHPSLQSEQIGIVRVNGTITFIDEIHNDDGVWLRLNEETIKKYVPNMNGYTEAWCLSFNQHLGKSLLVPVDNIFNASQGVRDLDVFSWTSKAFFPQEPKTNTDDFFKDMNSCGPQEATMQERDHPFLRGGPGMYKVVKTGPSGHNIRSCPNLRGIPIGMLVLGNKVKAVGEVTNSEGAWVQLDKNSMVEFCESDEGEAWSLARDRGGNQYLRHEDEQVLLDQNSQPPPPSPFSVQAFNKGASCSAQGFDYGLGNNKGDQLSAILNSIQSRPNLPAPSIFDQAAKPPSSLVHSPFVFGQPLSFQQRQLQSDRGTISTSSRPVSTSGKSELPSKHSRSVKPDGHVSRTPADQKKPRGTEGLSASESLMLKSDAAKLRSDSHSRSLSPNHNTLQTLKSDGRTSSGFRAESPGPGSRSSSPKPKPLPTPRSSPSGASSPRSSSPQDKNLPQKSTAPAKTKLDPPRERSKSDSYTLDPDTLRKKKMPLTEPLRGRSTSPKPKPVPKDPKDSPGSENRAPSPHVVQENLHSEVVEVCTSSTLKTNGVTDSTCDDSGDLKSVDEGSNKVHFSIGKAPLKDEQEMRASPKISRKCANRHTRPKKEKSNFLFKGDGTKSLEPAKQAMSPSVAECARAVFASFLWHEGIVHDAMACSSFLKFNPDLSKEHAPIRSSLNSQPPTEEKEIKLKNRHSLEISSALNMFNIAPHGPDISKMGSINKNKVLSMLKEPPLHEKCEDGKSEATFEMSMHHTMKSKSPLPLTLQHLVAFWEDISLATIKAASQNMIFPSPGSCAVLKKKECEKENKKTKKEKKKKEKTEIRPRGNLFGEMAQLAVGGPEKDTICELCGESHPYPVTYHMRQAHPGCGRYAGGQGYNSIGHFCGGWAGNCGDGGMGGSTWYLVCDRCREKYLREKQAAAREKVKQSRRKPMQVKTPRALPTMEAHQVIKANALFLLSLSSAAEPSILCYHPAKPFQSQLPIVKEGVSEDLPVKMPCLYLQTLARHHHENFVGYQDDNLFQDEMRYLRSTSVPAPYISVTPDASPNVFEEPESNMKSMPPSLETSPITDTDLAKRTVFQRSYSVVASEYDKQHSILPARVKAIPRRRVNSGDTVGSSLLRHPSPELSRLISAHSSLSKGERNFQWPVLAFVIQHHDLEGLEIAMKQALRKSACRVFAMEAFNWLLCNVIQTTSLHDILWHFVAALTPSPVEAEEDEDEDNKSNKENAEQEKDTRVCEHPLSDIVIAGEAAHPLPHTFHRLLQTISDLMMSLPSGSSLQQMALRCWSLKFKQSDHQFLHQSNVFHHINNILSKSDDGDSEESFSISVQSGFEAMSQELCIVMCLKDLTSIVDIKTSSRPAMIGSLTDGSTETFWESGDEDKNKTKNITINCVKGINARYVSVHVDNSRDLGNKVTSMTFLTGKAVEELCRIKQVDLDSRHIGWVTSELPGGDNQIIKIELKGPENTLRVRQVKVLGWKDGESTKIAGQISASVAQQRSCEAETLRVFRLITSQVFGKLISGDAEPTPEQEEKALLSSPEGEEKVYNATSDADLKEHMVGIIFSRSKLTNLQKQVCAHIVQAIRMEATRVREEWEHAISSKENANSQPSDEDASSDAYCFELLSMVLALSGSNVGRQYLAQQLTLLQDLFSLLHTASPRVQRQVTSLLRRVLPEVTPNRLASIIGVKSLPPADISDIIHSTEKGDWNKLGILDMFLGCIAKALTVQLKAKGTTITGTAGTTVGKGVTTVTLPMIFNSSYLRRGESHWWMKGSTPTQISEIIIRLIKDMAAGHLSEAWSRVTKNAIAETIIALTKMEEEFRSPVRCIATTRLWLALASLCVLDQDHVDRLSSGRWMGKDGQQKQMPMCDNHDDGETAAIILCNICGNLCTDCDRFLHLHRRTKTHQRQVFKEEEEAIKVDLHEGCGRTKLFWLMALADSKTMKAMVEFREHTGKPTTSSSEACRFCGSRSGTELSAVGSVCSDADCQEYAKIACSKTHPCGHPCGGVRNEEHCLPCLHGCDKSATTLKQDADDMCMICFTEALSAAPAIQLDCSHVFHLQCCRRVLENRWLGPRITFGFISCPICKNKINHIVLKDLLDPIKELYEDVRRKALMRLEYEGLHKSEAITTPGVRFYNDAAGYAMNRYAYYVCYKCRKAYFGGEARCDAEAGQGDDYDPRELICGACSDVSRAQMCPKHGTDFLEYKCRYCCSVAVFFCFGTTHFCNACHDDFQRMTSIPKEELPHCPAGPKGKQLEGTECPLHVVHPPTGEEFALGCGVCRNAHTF
UniProt P97471: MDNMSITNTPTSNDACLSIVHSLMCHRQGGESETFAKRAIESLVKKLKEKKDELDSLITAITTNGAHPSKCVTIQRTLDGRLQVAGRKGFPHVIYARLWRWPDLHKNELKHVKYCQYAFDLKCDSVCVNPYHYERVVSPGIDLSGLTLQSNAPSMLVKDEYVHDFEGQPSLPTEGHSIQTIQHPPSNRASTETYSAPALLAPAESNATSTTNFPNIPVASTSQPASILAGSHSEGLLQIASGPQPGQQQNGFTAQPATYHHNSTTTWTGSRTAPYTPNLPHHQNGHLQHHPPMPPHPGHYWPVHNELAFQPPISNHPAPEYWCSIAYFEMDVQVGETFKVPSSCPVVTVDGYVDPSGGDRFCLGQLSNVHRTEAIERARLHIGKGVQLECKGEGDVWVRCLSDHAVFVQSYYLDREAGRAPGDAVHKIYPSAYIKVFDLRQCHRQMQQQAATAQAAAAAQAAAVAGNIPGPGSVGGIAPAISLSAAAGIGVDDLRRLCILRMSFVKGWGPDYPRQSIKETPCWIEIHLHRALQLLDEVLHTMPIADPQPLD

Row | Substance | binding [1] | binding [2]
1 | MYC binding protein 2 (from UniProt Q7TPH6 1-4749) (enzyme) | binds | –
2 | PDZ and LIM domain 7 (from UniProt Q3TJD7 1-457) | – | binds
3 | SMAD family member 4 (from UniProt P97471 1-551) | no binding | –

Source: PMC11341699
